Binding data for three molecules are collected here from paper PMC4683259.

These are yes or no findings as the source states them, for the method shown. Binding seen in cells or lysates may run through a third protein. Binding calls can cover weak binding; strength is not graded here. Sequences can lack the tags named with a protein.

Assay [1] has as its target T1, KV10.1 voltage-gated potassium channel, full-length form (E100) (human) (UniProt O95259).
T1 sequence: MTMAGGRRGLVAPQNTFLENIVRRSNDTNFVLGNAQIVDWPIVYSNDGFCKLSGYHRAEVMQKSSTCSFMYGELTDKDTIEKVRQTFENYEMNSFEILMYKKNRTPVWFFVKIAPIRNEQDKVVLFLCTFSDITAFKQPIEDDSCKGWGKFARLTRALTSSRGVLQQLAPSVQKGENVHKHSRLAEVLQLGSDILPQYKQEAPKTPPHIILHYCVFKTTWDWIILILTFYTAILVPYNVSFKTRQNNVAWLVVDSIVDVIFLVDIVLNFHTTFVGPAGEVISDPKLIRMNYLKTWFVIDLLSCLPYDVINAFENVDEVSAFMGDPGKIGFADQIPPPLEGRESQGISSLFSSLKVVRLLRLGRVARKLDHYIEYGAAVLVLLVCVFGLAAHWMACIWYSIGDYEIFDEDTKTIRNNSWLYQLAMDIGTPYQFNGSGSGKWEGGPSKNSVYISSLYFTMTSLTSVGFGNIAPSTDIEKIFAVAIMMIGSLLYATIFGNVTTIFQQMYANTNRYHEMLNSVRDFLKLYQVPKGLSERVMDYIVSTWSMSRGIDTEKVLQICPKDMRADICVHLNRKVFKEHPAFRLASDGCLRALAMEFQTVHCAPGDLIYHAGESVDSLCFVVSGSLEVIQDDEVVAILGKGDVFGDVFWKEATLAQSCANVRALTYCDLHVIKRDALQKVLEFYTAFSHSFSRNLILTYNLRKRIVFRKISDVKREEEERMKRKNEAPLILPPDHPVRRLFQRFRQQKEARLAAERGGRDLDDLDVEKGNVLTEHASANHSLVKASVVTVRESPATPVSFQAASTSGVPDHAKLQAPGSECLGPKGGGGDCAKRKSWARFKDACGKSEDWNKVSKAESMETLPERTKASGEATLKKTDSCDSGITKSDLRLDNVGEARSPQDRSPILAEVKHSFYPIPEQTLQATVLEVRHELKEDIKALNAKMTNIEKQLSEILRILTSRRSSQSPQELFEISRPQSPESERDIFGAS
Put plainly: co-IP; reverse co-IP: extracts of HEK cells stably expressing KV10.1 and transfected with the mVenus-tagged variant; full-length KV10.1 precipitated with a monoclonal anti-KV10.1 antibody against the pore region (does not bind the short variants), protein G-magnetic beads; blot with anti-GFP.

The target of assay [2] is E70mVenus (KV10.1 splice variant E70 fused to mVenus) (human). Put plainly: co-IP; extracts of HEK cells stably expressing KV10.1 and transfected with the mVenus-tagged variant; variant precipitated with anti-GFP antibody, protein G-magnetic beads; blot with a polyclonal antibody against the C terminus of KV10.1; lysis buffer 50 mM Tris-HCl pH 7.4, 300 mM NaCl, 5 mM EDTA, 1% Triton X-100.

Assay [3] deals with E65mVenus (KV10.1 splice variant E65 fused to mVenus) (human). Described as above.

On to “E70mVenus (KV10.1 splice variant E70 fused to mVenus) (human)”, for which the binding result in assay [1] was “binds”.

Take “E65mVenus (KV10.1 splice variant E65 fused to mVenus) (human)”: in assay [1], the binding result was “binds”.

B1: KV10.1 voltage-gated potassium channel, full-length form (E100) (protein, UniProt O95259 1-989)
chain: T1 sequence
For B1, the binding result in assay [2] and in assay [3] was “binds” each time.
